No constants are given. Whether binding was seen depends on the method and setting. In cells and extracts the contact can be indirect. Here binding means that the protein was enriched with, or labelled near, the bait; the list need not be complete. Tags and fused reporters may be left off the sequences shown.
Target: T1, eGFP-Kif9 (HCT116 cells stably expressing eGFP-Kif9) (human) (UniProt Q9HAQ2)
T1 sequence: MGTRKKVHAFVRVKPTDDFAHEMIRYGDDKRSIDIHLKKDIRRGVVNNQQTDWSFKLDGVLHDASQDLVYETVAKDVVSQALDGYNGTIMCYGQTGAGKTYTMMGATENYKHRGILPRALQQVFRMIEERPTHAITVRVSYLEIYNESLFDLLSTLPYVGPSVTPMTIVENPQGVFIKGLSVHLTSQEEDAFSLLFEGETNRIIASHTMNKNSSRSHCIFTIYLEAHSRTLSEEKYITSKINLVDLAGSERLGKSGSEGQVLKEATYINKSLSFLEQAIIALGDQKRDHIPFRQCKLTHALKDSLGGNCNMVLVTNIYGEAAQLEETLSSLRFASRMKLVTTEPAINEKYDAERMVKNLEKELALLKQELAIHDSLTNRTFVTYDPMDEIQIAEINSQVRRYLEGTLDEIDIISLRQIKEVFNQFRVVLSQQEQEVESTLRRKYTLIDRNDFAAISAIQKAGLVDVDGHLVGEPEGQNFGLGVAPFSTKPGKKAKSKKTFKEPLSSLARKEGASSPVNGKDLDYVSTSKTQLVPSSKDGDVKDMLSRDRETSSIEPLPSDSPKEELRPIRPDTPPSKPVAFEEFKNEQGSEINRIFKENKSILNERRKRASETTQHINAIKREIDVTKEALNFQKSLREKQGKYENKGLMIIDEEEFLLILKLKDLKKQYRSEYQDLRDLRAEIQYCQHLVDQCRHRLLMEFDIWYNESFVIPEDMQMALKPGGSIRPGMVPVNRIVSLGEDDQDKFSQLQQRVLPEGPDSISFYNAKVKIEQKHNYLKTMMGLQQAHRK
Test: affinity purification with mass spectrometry

Protein sequences, listed by entry. Tags and fused reporters are not part of them.
UniProt Q15154: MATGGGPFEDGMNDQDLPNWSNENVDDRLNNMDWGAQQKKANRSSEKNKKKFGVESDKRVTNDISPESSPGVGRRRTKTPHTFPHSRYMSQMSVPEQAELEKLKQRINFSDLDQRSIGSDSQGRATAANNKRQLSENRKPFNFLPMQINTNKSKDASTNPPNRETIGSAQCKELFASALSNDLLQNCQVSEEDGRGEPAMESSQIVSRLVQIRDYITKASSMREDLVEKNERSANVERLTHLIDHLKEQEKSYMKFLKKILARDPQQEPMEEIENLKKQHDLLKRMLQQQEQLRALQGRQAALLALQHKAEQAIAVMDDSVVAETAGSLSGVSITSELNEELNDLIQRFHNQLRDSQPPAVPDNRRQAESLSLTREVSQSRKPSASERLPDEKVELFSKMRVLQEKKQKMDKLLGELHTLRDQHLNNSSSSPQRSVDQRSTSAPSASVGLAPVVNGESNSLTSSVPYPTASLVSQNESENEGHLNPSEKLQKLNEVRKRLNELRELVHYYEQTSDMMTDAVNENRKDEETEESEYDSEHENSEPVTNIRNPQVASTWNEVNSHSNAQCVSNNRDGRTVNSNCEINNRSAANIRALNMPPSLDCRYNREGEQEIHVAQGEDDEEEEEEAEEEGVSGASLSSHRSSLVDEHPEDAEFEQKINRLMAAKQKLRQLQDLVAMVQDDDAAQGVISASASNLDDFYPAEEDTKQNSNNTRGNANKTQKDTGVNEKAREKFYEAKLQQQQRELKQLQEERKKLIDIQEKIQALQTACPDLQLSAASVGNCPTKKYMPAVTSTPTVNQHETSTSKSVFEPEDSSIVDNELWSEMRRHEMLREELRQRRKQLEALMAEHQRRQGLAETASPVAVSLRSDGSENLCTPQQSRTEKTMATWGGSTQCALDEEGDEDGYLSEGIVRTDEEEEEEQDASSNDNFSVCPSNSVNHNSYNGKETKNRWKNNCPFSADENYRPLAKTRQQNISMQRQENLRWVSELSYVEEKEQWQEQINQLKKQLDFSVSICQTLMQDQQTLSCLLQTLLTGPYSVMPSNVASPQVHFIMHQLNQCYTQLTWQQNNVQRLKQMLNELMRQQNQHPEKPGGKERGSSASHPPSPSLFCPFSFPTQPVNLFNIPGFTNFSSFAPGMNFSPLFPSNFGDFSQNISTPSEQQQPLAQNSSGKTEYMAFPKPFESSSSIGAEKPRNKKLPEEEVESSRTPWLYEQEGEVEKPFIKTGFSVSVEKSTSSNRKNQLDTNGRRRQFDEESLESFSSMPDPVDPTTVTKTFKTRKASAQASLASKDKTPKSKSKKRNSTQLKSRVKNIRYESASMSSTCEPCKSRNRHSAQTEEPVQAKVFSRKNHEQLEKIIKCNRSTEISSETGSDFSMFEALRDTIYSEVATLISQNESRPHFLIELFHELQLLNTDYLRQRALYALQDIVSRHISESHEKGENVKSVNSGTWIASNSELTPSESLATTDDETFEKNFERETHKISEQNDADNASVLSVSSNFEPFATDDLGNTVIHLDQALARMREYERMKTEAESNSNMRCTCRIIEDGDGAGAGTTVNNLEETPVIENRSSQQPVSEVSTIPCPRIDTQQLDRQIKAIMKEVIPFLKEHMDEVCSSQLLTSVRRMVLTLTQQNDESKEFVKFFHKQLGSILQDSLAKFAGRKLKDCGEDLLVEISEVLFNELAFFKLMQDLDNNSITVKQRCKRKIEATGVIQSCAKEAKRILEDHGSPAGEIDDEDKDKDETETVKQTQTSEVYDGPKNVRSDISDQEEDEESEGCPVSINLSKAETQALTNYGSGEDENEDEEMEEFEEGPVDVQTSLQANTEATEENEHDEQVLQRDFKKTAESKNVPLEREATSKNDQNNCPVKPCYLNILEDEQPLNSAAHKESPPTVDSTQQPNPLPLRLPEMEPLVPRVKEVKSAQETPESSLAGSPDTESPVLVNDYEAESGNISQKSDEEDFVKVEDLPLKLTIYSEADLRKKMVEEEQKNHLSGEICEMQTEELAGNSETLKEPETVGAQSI

- binding: binds
Substance: PCM1 (endogenous, HCT116) (from UniProt Q15154 1-2024)
